Laboratory results published in publication PMC6092624.
No constants are given. Whether binding was seen depends on the method and setting. In cells and extracts the contact can be indirect.

Target: T1, endogenous RBP2 of mouse brain (mouse (endogenous in brain)) (UniProt Q80U40)
T1 sequence: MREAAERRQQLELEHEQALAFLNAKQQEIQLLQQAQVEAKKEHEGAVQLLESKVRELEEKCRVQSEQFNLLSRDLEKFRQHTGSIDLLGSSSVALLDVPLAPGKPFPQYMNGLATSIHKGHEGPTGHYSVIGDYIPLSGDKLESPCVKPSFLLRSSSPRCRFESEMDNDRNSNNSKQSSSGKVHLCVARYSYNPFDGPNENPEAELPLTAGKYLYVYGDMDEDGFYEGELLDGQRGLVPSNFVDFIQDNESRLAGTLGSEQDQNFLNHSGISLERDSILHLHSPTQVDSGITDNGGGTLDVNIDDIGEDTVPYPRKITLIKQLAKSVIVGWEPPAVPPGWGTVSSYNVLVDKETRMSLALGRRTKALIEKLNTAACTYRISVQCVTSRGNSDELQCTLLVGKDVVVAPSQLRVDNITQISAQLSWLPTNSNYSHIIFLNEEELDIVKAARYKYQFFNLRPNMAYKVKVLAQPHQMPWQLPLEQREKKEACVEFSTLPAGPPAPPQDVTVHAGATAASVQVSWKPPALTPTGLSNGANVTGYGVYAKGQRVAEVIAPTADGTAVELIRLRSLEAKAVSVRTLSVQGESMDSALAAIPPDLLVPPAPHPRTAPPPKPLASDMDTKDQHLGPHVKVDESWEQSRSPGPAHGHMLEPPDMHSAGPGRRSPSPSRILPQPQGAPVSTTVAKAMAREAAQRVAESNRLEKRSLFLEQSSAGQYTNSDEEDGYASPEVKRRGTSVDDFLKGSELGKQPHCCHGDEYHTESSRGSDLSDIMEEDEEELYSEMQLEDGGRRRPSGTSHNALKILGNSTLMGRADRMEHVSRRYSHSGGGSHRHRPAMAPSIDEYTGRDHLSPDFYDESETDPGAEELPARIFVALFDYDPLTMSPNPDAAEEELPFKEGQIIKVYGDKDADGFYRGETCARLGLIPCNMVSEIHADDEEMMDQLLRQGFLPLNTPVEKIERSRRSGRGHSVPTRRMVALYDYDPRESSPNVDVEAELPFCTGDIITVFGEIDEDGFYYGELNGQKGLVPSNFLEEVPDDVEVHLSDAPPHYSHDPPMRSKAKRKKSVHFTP
Assay: co-IP; endogenous proteins of mouse brain homogenates solubilized with Triton X-100 (1%), NP-40 (1%) or SDS (0.3%); immunoprecipitation with antibodies to RBP2 or RIMs; preimmune serum as control

binding: no binding
Substance: endogenous syntaxin-1 of mouse brain
